Measured values published in article PMC2785806.
Results are given in words; binding and its absence hold for the method and conditions named. Binding seen in cells or lysates may run through a third protein.

Target: RNA Pol II largest subunit, as precipitated with the 8WG16 monoclonal antibody against the carboxyl terminal domain (CTD) (Drosophila (endogenous in wild type embryos)), P04052
Assay: co-IP; test of dAGO2 with RNA Pol II CTD; no figure is cited; the RNA Pol II antibody used is not told
Settings: remark: other sources report otherwise

B1: dAGO2, Q9VUQ5 1-1214 (protein)
chain: MGKKDKNKKGGQDSAAAPQPQQQQKQQQQRQQQPQQLQQPQQLQQPQQLQQPQQQQQQQPHQQQQQSSRQQPSTSSGGSRASGFQQGGQQQKSQDAEGWTAQKKQGKQQVQGWTKQGQQGGHQQGRQGQDGGYQQRPPGQQQGGHQQGRQGQEGGYQQRPPGQQQGGHQQGRQGQEGGYQQRPSGQQQGGHQQGRQGQEGGYQQRPPGQQQGGHQQGRQGQEGGYQQRPSGQQQGGHQQGRQGQEGGYQQRPPGQQQGGHQQGRQGQEGGYQQRPPGQQQGGHEQGRQGQEGGYQQRPSGQQQGGHQQGRQGQEGGYQQRPSGQQQGGHQQGRQGQEGGYQQRPSGQQQGGHQQGRQGQEGGYQQRPPGQQPNQTQSQGQYQSRGPPQQQQAAPLPLPPQPAGSIKRGTIGKPGQVGINYLDLDLSKMPSVAYHYDVKIMPERPKKFYRQAFEQFRVDQLGGAVLAYDGKASCYSVDKLPLNSQNPEVTVTDRNGRTLRYTIEIKETGDSTIDLKSLTTYMNDRIFDKPMRAMQCVEVVLASPCHNKAIRVGRSFFKMSDPNNRHELDDGYEALVGLYQAFMLGDRPFLNVDISHKSFPISMPMIEYLERFSLKAKINNTTNLDYSRRFLEPFLRGINVVYTPPQSFQSAPRVYRVNGLSRAPASSETFEHDGKKVTIASYFHSRNYPLKFPQLHCLNVGSSIKSILLPIELCSIEEGQALNRKDGATQVANMIKYAATSTNVRKRKIMNLLQYFQHNLDPTISRFGIRIANDFIVVSTRVLSPPQVEYHSKRFTMVKNGSWRMDGMKFLEPKPKAHKCAVLYCDPRSGRKMNYTQLNDFGNLIISQGKAVNISLDSDVTYRPFTDDERSLDTIFADLKRSQHDLAIVIIPQFRISYDTIKQKAELQHGILTQCIKQFTVERKCNNQTIGNILLKINSKLNGINHKIKDDPRLPMMKNTMYIGADVTHPSPDQREIPSVVGVAASHDPYGASYNMQYRLQRGALEEIEDMFSITLEHLRVYKEYRNAYPDHIIYYRDGVSDGQFPKIKNEELRCIKQACDKVGCKPKICCVIVVKRHHTRFFPSGDVTTSNKFNNVDPGTVVDRTIVHPNEMQFFMVSHQAIQGTAKPTRYNVIENTGNLDIDLLQQLTYNLCHMFPRCNRSVSYPAPAYLAHLVAARGRVYLTGTNRFLDLKKEYAKRTIVPEFMKKNPMYFV
- binding: no binding
